Assay [1] has as its target T1, RELA (wild type), NF-kB subunit p65 (UniProt Q04206 1-551). The experiment in a line: co-IP; as a1 (RELA pulldown), with TWIST1, RELA and rising shares of GFP-WR against control GFP co-expressed, total GFP held constant.
Assay [2] has as its target T1, RELA (wild type), NF-kB subunit p65. The assay can be described thus: co-IP; HEK-293 cells transiently transfected with TWIST1 and RELA alleles; RIPA lysate, pre-cleared; pulldown with rabbit anti-RELA and Protein A/G agarose at 4 °C overnight, five washes with PBS; western blot for TWIST1; ratio of TWIST1 to RELA, each normalized to its input. A general note: A western blot detects proteins with antibodies after separation by electrophoresis.

Sequences of proteins named here, by UniProt entry; tags and fusion partners are left off.
UniProt Q04206: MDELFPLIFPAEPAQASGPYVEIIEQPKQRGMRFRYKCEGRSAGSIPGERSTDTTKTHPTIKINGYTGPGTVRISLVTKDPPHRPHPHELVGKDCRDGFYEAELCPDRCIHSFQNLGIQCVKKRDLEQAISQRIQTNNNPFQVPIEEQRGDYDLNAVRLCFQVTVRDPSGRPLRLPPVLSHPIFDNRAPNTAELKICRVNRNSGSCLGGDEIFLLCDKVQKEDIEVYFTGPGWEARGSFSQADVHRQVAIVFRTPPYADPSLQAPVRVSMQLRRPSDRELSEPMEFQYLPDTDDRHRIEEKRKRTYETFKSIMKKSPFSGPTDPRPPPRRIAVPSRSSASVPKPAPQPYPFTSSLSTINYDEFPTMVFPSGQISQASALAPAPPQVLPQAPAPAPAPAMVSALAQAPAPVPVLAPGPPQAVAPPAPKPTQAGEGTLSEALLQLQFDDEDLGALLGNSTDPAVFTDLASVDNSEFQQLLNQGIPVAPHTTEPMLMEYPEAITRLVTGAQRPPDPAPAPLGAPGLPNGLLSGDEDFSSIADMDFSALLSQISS

Assay [3] concerns the target GFP-WR fusion protein (eGFP fused to the TWIST1 WR domain) (human) (UniProt Q15672). The assay can be described thus: co-IP; HEK-293 cells transfected with TWIST1, RELA and rising shares of GFP-WR against control GFP; RIPA lysate; pulldown with rabbit anti-GFP and Protein A/G agarose; western blot for TWIST1; ratio of TWIST1 to GFP, normalized to inputs.

No constants are given. Whether binding was seen depends on the method and setting. Binding seen in cells or lysates may run through a third protein. Some entries that bind do so weakly or less than the wild type.

Turning to “TWIST1 (wild type) (from UniProt Q15672 1-202)”, the binding result in assay [1], in assay [2] and in assay [3] was “binds” throughout.
In the case of “TWIST1 deltaWR (all twenty amino acids of the WR domain deleted) (from UniProt Q15672 1-182) (domain or fragment)”, the binding result in assay [2] was “binds weakly”.

B1: TWIST1 E193A (natural protein, human, UniProt Q15672 1-202, looked up)
chain: MMQDVSSSPVSPADDSLSNSEEEPDRQQPPSGKRGGRKRRSSRRSAGGGAGPGGAAGGGVGGGDEPGSPAQGKRGKKSAGCGGGGGAGGGGGSSSGGGSPQSYEELQTQRVMANVRERQRTQSLNEAFAALRKIIPTLPSDKLSKIQTLKLAARYIDFLYQVLQSDELDSKMASCSYVAHERLSYAFSVWRMAGAWSMSASH
As for B1, the binding result in assay [2] was “binds”.

B2: TWIST1 W190A (natural protein, human, UniProt Q15672 1-202, looked up)
chain: MMQDVSSSPVSPADDSLSNSEEEPDRQQPPSGKRGGRKRRSSRRSAGGGAGPGGAAGGGVGGGDEPGSPAQGKRGKKSAGCGGGGGAGGGGGSSSGGGSPQSYEELQTQRVMANVRERQRTQSLNEAFAALRKIIPTLPSDKLSKIQTLKLAARYIDFLYQVLQSDELDSKMASCSYVAHERLSYAFSVARMEGAWSMSASH
For B2, the binding entry in assay [2] is “binds”.

B3: TWIST1 R191A (natural protein, human, UniProt Q15672 1-202, looked up)
chain: MMQDVSSSPVSPADDSLSNSEEEPDRQQPPSGKRGGRKRRSSRRSAGGGAGPGGAAGGGVGGGDEPGSPAQGKRGKKSAGCGGGGGAGGGGGSSSGGGSPQSYEELQTQRVMANVRERQRTQSLNEAFAALRKIIPTLPSDKLSKIQTLKLAARYIDFLYQVLQSDELDSKMASCSYVAHERLSYAFSVWAMEGAWSMSASH
On to B3, for which the binding result in assay [2] is recorded as “binds”.

The record behind these values is PMC5345230, “Disruption of TWIST1-RELA binding by mutation and competitive inhibition to validate the TWIST1 WR domain as a therapeutic target” (BMC Cancer, 2017).
